This test deals with T1, chaperonin-containing TCP1 subunit 3 (CCT3) (human (endogenous in 97 L and LM3)) (UniProt P49368).
T1 sequence: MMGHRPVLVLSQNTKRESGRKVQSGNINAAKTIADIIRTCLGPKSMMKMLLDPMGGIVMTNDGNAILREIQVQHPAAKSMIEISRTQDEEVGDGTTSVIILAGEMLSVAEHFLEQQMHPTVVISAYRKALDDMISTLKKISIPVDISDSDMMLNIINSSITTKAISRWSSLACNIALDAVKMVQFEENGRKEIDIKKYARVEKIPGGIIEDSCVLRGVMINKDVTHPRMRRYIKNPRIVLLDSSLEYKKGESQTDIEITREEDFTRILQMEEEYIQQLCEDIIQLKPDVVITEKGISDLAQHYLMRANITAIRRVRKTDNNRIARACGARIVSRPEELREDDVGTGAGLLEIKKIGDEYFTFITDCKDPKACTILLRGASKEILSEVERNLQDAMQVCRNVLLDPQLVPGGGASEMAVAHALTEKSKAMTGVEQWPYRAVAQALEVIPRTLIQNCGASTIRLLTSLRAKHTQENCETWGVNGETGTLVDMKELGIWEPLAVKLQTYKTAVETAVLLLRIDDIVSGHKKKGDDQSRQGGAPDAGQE
The test is described as follows: affinity purification with mass spectrometry; immunoprecipitation of endogenous CCT3 with anti-CCT3 antibody against IgG isotype control, precipitate analysed by mass spectrometry; with and without Sorafenib treatment of the cells.

The chains behind the UniProt entries cited, without tags or fusion partners.
UniProt O43707: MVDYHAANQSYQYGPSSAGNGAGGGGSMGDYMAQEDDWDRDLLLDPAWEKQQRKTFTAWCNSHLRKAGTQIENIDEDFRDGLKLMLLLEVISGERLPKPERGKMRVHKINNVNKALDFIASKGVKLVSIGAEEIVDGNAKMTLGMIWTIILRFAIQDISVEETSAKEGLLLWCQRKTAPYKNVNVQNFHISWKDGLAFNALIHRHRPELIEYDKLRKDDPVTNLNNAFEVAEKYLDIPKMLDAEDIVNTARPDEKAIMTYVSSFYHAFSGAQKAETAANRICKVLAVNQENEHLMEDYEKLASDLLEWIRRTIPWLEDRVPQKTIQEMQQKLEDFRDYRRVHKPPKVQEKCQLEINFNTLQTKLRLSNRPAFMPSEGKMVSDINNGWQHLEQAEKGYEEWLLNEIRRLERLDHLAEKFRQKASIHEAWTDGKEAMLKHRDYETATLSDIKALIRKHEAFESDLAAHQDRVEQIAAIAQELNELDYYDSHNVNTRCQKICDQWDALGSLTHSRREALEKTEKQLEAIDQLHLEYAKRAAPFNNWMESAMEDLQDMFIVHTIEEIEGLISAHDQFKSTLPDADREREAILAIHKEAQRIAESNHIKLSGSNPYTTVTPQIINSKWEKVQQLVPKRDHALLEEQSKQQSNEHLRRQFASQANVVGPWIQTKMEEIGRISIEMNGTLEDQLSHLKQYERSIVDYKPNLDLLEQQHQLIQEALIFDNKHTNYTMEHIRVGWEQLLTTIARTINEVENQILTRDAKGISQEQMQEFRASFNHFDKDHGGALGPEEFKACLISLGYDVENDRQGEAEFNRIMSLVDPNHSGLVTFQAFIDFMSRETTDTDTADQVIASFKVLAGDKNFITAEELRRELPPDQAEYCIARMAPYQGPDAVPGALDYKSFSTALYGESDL
UniProt P48643: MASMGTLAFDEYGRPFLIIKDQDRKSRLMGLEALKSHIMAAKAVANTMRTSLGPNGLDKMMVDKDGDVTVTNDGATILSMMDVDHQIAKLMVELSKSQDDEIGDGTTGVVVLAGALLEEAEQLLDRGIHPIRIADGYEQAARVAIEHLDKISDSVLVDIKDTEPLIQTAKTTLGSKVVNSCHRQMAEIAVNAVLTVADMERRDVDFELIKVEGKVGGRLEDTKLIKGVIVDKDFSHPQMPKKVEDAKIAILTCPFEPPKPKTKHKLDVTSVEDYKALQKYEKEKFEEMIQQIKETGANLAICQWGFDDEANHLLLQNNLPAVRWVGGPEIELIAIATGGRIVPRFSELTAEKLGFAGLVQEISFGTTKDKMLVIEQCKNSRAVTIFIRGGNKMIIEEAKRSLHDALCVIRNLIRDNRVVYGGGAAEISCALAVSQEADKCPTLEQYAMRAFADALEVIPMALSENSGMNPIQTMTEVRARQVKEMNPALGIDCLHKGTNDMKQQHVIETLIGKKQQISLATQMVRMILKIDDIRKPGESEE

No constants are given. Whether binding was seen depends on the method and setting. Binding seen in cells or lysates may run through a third protein. A yes stands for co-enrichment or nearness to the bait. Other partners may have been found.

Regarding ACTN4 (from UniProt O43707 1-911), the binding result is given as “binds”.

With CCT5 (from UniProt P48643 1-541), the binding entry is recorded as “binds”.

The values above are taken from publication PMC11360757.
